Assay results published in publication PMC11388340.
Results are given in words; binding and its absence hold for the method and conditions named. Some results given as binding are weak or reduced against the parent protein; the word gives no strength.

Key:
[1] = target: HIRA 1 to 473 (HIRA-WB) (human) (UniProt P54198); test: mass photometry; TwoMP mass photometer, complexes diluted with 20 mM HEPES pH 7.5, 150 mM NaCl, 0.5 mM TCEP; both purified
[2] = target: HIRA 1 to 473 (HIRA-WB) (human) (UniProt P54198); test: SEC; HIRA-WB and UBN1-NM co-expressed in Sf9 and co-purified by nickel affinity (His tag on HIRA), heparin and SEC; 20 mM HEPES pH 6.95, 500 mM NaCl, 0.5 mM TCEP; both purified

UBN1 1 to 584 (UBN1-NM) (from UniProt Q9NPG3 1-584) (domain or fragment)
binding [1]: binds | binding [2]: binds
